Measured values from PubChem BioAssay AID590 (National Center for Advancing Translational Sciences (NCATS), 2007).
Hit rate of the full screen: of about 59,000 compounds, about 6,500 (11%) were called active. Inconclusive means that the source gave no clear call. Such entries were picked first, then a sample of the others. No stated cut-off is given here; in the data, active means max dye-equivalent concentration above about 10 nM; inconclusive means mostly about 1.1 nM to 9.6 nM; inactive means weaker than that.

Assay: qHTS Assay for Spectroscopic Profiling in A350 Spectral Region
Settings: Compound autofluorescence, 340/450 nm, Alexa 350 dye-equivalents; active compounds read high

Row | SMILES | max dye-equivalent concentration
1 | Cn1nnc2cc(NC(=O)N3CC4(C)CC3CC(C)(C)C4)ccc21 (stereo not given) | inconclusive: 1.1 nM
2 | COc1ccc(-c2cc(C(=O)N3CCN(C(c4ccccc4)c4ccccc4)CC3)no2)cc1 | inactive
3 | CC(=O)N1CCc2[nH]c3ccccc3c2C1 | inconclusive: 2.5 nM
4 | COc1ccc(C(=O)N(CCCO)C(C)C(=O)NC2CCCCC2)cc1OC (stereo not given) | inactive
5 | COc1ccc2[nH]cc(CCNc3ccnc(-c4c(C)noc4C)n3)c2c1 | inactive
6 | Cc1ccc(C)n1-c1ccc(N2CCOCC2)nc1 | active: 51 nM
7 | c1csc(-c2nc3nc4ccccc4nc3n2Cc2ccc3c(c2)OCO3)c1 | active: 36 nM
8 | COc1cc2nc3c4ccccc4n(CC#N)c3nc2cc1OC | inactive
9 | Cc1ccc(C(c2nnnn2CS(=O)(=O)c2ccc(C)cc2)N2CCC(C(N)=O)CC2)cc1 (stereo not given) | inactive
10 | Cc1cc(C)c2[nH]c(=O)c(CN(CC3CCCO3)C(=O)C3CCCO3)cc2c1 (stereo not given) | active: 14 nM
11 | O=C(NC1CCN(Cc2ccccc2)CC1)C1CCN(S(=O)(=O)c2cccc3nsnc23)CC1 | inconclusive: 1.7 nM
12 | O=c1c(-c2ccc(F)cc2)nc2cncnc2n1-c1ccccc1 | inconclusive: 1.6 nM
13 | CN(c1ccccc1C(=O)N1CCOCC1)S(C)(=O)=O | inactive
14 | COc1ccc2[nH]c(=O)c(CN(C3CCCCC3)C(c3nnnn3Cc3ccco3)C(C)C)cc2c1 (stereo not given) | active: 14 nM
15 | CCCCNC(=O)CCCCCn1c(=O)[nH]c2cc(OC)c(OC)cc2c1=O | inactive
16 | O=C(O)CCc1cc(I)c(Oc2ccc(O)c(I)c2)c(I)c1 | inconclusive: 3 nM
17 | O=P(O)(O)c1ccccc1OCc1ccccc1 | inconclusive: 1.3 nM
18 | Fc1cccc(CN2CCCCCCC2)c1 | inconclusive: 2.4 nM
19 | C[C@@H](C(=O)O)c1ccc(C[C@@H]2CCCC2=O)cc1 | inactive
20 | Cc1ccc(-c2nc3ccccc3c(=O)n2CCN2CCOCC2)cc1 | inconclusive: 1.1 nM
21 | COc1ccc(CN2CN(C(C)C)CSC2=S)cc1 | inconclusive: 1.6 nM
22 | CN1[C@@H]2CC[C@H]1CC(OC(c1ccccc1)c1ccccc1)C2 (stereo not given in full) | inactive
23 | Nc1ccc(S(=O)(=O)Nc2ccccn2)cc1 | inconclusive: 5.8 nM

Not a retest: entries from further up.
Row | SMILES | max dye-equivalent concentration
19 | C[C@@H](C(=O)O)c1ccc(C[C@@H]2CCCC2=O)cc1 | inactive
20 | Cc1ccc(-c2nc3ccccc3c(=O)n2CCN2CCOCC2)cc1 | inconclusive: 1.1 nM
21 | COc1ccc(CN2CN(C(C)C)CSC2=S)cc1 | inconclusive: 1.6 nM
22 | CN1[C@@H]2CC[C@H]1CC(OC(c1ccccc1)c1ccccc1)C2 (stereo not given in full) | inactive

(next part)

Row | SMILES | max dye-equivalent concentration
24 | COc1ccc(OC)c(NC(=O)c2cc(-c3ccc(C)cc3O)n[nH]2)c1 | inconclusive: 1.8 nM
25 | CCOC(=O)NC(Nc1sc2c(c1C(N)=O)CCCC2)(C(=O)OCC)C(F)(F)F (stereo not given) | inconclusive: 1.5 nM
26 | CCCc1cc(Nc2cccc(OC)c2)n2ncnc2n1 | inconclusive: 1.1 nM
27 | CCOC(=O)N1CCN(CCC(=O)Nc2ccc(C)c(Br)c2)CC1 | inconclusive: 1.2 nM
28 | CCOC(=O)Nc1ccc2c(CN3CCN(S(=O)(=O)c4ccccc4)CC3)cc(=O)oc2c1 | active: 10 nM
29 | CCc1cccc(CC)c1N(COC)C(=O)Cn1c(C(C)O)nc2ccccc21 (stereo not given) | inconclusive: 2.1 nM
30 | CCOC(=O)N1CCC(NS(=O)(=O)c2cc3c(cc2C)NC(=O)CO3)CC1 | inconclusive: 1.4 nM
31 | COc1ccc(-c2cnnn2-c2ccc(NC(=O)c3ccco3)cc2)cc1OC | inconclusive: 1.3 nM
32 | O=C(Nc1nc(-c2cccs2)cs1)c1cccc(S(=O)(=O)N2CCCCC2)c1 | active: 28 nM
33 | Cc1[nH]nc2c1-c1nc3ccccc3nc1C(C)(C)C2 | active: 2300 nM
34 | COCCn1nnnc1CN1CCC(NC(=O)c2ccc(Br)cc2)CC1 | inactive
35 | CCNc1ncc2nc(-c3ccccc3)c(=O)n(C[C@H]3CCCO3)c2n1 | active: 670 nM
36 | Cc1ccc2c(c1)c(C)c(C)n2CC(O)CN1CCOCC1 (stereo not given) | inconclusive: 4.3 nM
37 | Cc1ccnc(N2CCC(C(=O)Nc3nnc(C)s3)CC2)n1 | inactive
38 | O=C(CN1C(=O)c2ccccc2C1=O)OCN1C(=O)c2ccccc2C1=O | inactive
39 | Cc1ccc2cc(CN(CCN3CCCC3)C(=O)Nc3ccccc3)c(=O)[nH]c2c1C | inconclusive: 1.1 nM
40 | COc1ccccc1Nc1nc(N)nc(CN2CCN(c3ccccc3)CC2)n1 | inactive
41 | COc1ccc(Cl)cc1NC(=O)CSc1nnc(-c2ccncc2)n1CC1CCCO1 (stereo not given) | inactive
42 | COc1cc2c(cc1OC)-c1cc(NC3CCCCCC3)nc(=O)n1CC2 | active: 50 nM
43 | CCOC(=O)c1c(NC(=O)c2nn(CC)cc2Br)c(C#N)cn1-c1ccccc1 | inactive
44 | c1ccc(C2C3=C(Nc4ncnn42)c2ccccc2CCC3)cc1 (stereo not given) | inactive
45 | CCn1c(C)cc2c(c1=O)C(c1ccncc1)C(C#N)=C(N)O2 (stereo not given) | inconclusive: 4.4 nM
46 | COc1ccc(S(=O)(=O)NCCC(=O)NCc2ccc(F)cc2)cc1 | inconclusive: 1.9 nM

Row | SMILES | max dye-equivalent concentration
47 | COc1ccc(-n2c(=O)cnc3cnc(Oc4ccccc4)nc32)cc1 | inconclusive: 1.1 nM
48 | C[C@@H]1C(=O)N(C)C(=O)c2nc[nH]c21 | inactive
49 | CCc1c(C)c2cc(Cl)c(O)c(CN3CCCCC3)c2oc1=O | active: 12000 nM
50 | CCOC(=O)C1=C(C)NC(C)=C(C(=O)OCC)C1C(=O)OC1CCOC1=O (stereo not given) | active: 200 nM
51 | CCOC(=O)N1CCN(S(=O)(=O)c2ccc3[nH]cc(C(=O)O)c(=O)c3c2)CC1 | inconclusive: 7.4 nM
52 | COCCN1C(=O)c2oc3c(C)cc(C)cc3c(=O)c2C1c1cccc(O)c1 (stereo not given) | inconclusive: 3.1 nM
53 | CCOCCCn1c(=NC(C)=O)c(C(=O)OCC)cc2c(=O)n3ccccc3nc21 | active: 10000 nM
54 | COc1ccc(C2C3=C(Nc4ncnn42)c2ccccc2CCC3)cc1 (stereo not given) | active: 15 nM
55 | Cc1ccc(N(CC(N)=O)C2SC(=O)N(C)C2=O)cc1 (stereo not given) | inconclusive: 3.2 nM
56 | O=C(CNS(=O)(=O)c1cccs1)Nc1ccc2c(c1)OCCO2 | inactive
57 | O=C1CC(SCc2nc3ccccc3[nH]2)C(=O)N1c1cccc(F)c1 (stereo not given) | inconclusive: 1.1 nM
58 | Cc1ccccc1N1CC(c2nc3ccccc3[nH]2)CC1=O (stereo not given) | inconclusive: 2.2 nM
59 | CCCc1cc(=O)oc2cc(Oc3ncccn3)ccc12 | active: 440 nM
60 | C=CCn1c(O)c(C(CC)=Nc2ccccc2NC(=O)CC)c(=O)[nH]c1=O | inconclusive: 1.7 nM
61 | Cc1cc(-c2ccco2)c(C#N)c2nc3ccccc3n12 | inconclusive: 9.9 nM
62 | CCc1ccccc1NS(=O)(=O)c1ccc2[nH]cc(C(=O)NCC3CCCO3)c(=O)c2c1 (stereo not given) | inconclusive: 2.1 nM
63 | Cc1ccnc(NC(=O)COc2ccc3oc4c(c3c2)CCCC4)c1 | inactive
64 | CCCN1Cc2cccc(C(=O)NC3CCCC3)c2C1=O | inactive
65 | O=C(CNS(=O)(=O)c1ccc(C(=O)N2CCCCC2)cc1)N1CCCCC1 | inactive
66 | C[C@@H]1C[C@H]2[C@@H]3C[C@H](F)C4=CC(=O)C=C[C@]4(C)[C@@]3(F)[C@@H](O)C[C@]2(C)[C@@]1(O)C(=O)COC(=O)C(C)(C)C | inconclusive: 4.9 nM
67 | COC(=O)c1cc(OC)c(OC)c(OC)c1NC(=O)c1ccc(S(=O)(=O)N(C)C)cc1 | inactive
68 | C(=N/Nc1nnc2c(n1)[nH]c1ccccc12)/c1cccnc1 | inactive
69 | OC(c1ccc2c(c1)OCO2)c1nccc2ccccc12 (stereo not given) | inconclusive: 1.2 nM

Row | SMILES | max dye-equivalent concentration
70 | COc1ccc2cc(CN(CCO)C(=O)c3ccccc3F)c(=O)[nH]c2c1 | inconclusive: 1.6 nM
71 | O=C(NCCCN1CCOCC1)c1cc2c(s1)CSC2 | inconclusive: 7.7 nM
72 | CC(=O)[C@@H]1[C@@H]2C(=O)N(c3ccc(F)c(Cl)c3)C(=O)[C@@H]2C2c3ccccc3C=CN21 (stereo not given in full) | inconclusive: 6.8 nM
73 | CN(C)CCN1C(=O)c2oc3ccccc3c(=O)c2C1c1ccc(F)cc1 (stereo not given) | inconclusive: 1.3 nM
74 | COC(=O)CN1C(=O)C2(C(C#N)=C(N)Oc3c2c(C)nn3-c2ccccc2)c2ccccc21 (stereo not given) | inactive
75 | CC(C)Cn1c(=O)n(C)c(=O)c2[nH]cnc21 | inconclusive: 1.8 nM
76 | CN(C)c1ncc2ncc(=O)n(Cc3cccs3)c2n1 | active: 10 nM
77 | Cc1nnc(Nc2ccc(C(=O)NCCO)cc2)c2ccccc12 | inconclusive: 3.4 nM
78 | Cc1nc(Nc2nc(=O)c3ccccc3n2C)nc2c(C)cccc12 | active: 160 nM
79 | COc1ccc(CCNC(=O)c2c(O)c3cccc4c3n(c2=O)CC4)cc1 | active: 11 nM
80 | CC1(c2ccc3noc(-c4ccc(Cl)cc4)c3c2)OCCO1 | inconclusive: 5.9 nM
81 | Cc1cccc2cc(CN(Cc3cccnc3)C(=O)c3ccncc3)c(=O)[nH]c12 | inconclusive: 5.9 nM
82 | CN1CCc2c(sc3c2c(=O)n(-c2ccccc2)c2nncn32)C1 | active: 15 nM
83 | CCCCn1c(SCn2nnc3ccccc3c2=O)nc2cc(C(=O)OC)ccc2c1=O | inactive
84 | CCn1c(SCc2nc3ccccc3[nH]2)nnc1-c1cnccn1 | inconclusive: 2.6 nM
85 | O=C(Cn1cc(C(F)(F)F)ccc1=O)N1CCN(S(=O)(=O)c2ccccc2)CC1 | inconclusive: 1.2 nM
86 | CCc1nc2ccccc2n1Cc1ccc(OC)c(OC)c1 | inactive
87 | COc1ccc(OC)c(Nc2nc(N)nc(-c3cc4ccccc4o3)n2)c1 | inactive
88 | COc1ccc(Oc2ncc3nc(-c4ccccc4)c(=O)n(C[C@H]4CCCO4)c3n2)cc1 | inconclusive: 5.6 nM
89 | O=C(NCc1ccc(F)cc1)C1CCCN1C(=O)NCc1ccccc1 (stereo not given) | inactive
90 | COc1ccccc1NC(=O)C(C)NS(=O)(=O)c1ccc(F)cc1 (stereo not given) | inconclusive: 1.5 nM
